Experimental data: the supplement of paper PMC12889115
Some of the results follow. These are raw signals, not scaled to a control.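 In the initial screen, polymyxin B was used at a concentration that permeabilizes Salmonella's outer membrane but not its inner membrane. Maximum growth was set by DMSO wells with or without polymyxin B. Since plates varied, data were ranked per plate, and compounds giving the lowest OD600 advanced as hits.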

Test system: Salmonella enterica serovar Typhimurium SL1344
Assay: bacterial growth OD600 after 18 h with compound and polymyxin B; higher = more bacterial growth (less inhibition)
Settings: 50 µM, Mueller-Hinton broth

Row | Compound | bacterial growth OD600 (polymyxin B 0.75 µg/mL) | bacterial growth OD600 (polymyxin B 1 µg/mL)
1 | O=C(CC1=CCCCC1)N1CCC(C2(c3ccccn3)NC(=O)N(CCc3cccs3)C2=O)CC1 (stereo unspecified) | 0.853 | –
2 | CC(C)Nc1ccc(C(=O)N2CCCCC2CCn2cccn2)cn1 (stereo unspecified) | – | 0.827
3 | CCC(=O)N[C@@H]1c2ccccc2C2(CCN(C(=O)CCC(=O)OC)CC2)[C@H]1OCc1cccnc1 | 0.752 | –
4 | O=C(c1ccc(NC2CCC2)nc1)N1CCCCC1CCn1cccn1 (stereo unspecified) | – | 0.93
5 | O=C(NCC1(N2CCOCC2)CCCC1)c1coc(COc2cccc(F)c2)n1 | – | 0.884
6 | COc1ccc(OCc2cc(C(=O)N3CCCCC3CO)n[nH]2)c(Cl)c1 (stereo unspecified) | – | 0.881
7 | CCN1C(=O)CC(CC(=O)N2CCC[C@H]2C(=O)OC)(c2cccc(C(F)(F)F)c2)C1=O (stereo partly specified) | 0.759 | –
8 | COCCN(CC1CCCN(C2Cc3ccccc3C2)C1)C(=O)C1CCCC1 (stereo unspecified) | – | 0.727
9 | COC(=O)C1CCCCN1C1CCN(c2ccc(CC(=O)NCCc3cccc(F)c3)cc2)CC1 (stereo unspecified) | 0.919 | –
10 | Cc1nc(C(=O)NCC2Cc3cccc(-c4ncccn4)c3O2)cs1 (stereo unspecified) | 0.854 | –
11 | COCC1CCCN(C(=O)c2ccc(NC3CCC3)nc2)C1 (stereo unspecified) | – | 0.941
12 | CCOC(=O)CC1CCCCN1Cc1nc(-c2ccc(C)cc2)oc1C (stereo unspecified) | – | 0.823
13 | COCc1noc(-c2ccc(N(C)CCC3CCCCO3)nc2)n1 (stereo unspecified) | – | 0.976
14 | COc1cccc(CCC2CCCN(C(=O)c3cscn3)C2)c1 (stereo unspecified) | 0.001 | –
15 | Cc1cnc(C)c(N2CCN(C(=O)C3CCC(=O)N(C4CCCC4)C3)CC2)n1 (stereo unspecified) | – | 0.842
16 | Cc1ccc(C(=O)N2CCC(C3(c4ccccn4)NC(=O)N(CCc4cccs4)C3=O)CC2)cc1 (stereo unspecified) | 0.773 | –

Row | Compound | bacterial growth OD600 (polymyxin B 0.75 µg/mL) | bacterial growth OD600 (polymyxin B 1 µg/mL)
17 | CCn1c(CN2CCN(Cc3cc(OC)cc(OC)c3)C(CCO)C2)nc2ccccc21 (stereo unspecified) | – | 0.933
18 | Cc1ncc2c(c1CNC(=O)CSc1ccccc1)CCN(C(=O)c1ccc3c(c1)OCCO3)C2 | 0.777 | –
19 | CC(Cc1ccsc1)NC(=O)c1cc(Cn2ccnc2C(C)C)[nH]n1 (stereo unspecified) | 0.846 | –
20 | CCOC(=O)N1CCN(C(=O)c2ccc(N3CCC(NCc4cnc5ccccn45)CC3)cc2)CC1 | 0.99 | –
21 | COC(=O)CCCC(=O)N1CCCC(CCC(=O)Nc2cc(OC)cc(OC)c2)C1 (stereo unspecified) | – | 0.882
22 | O=C(CCn1cncn1)NCc1cccnc1Oc1ccccc1F | 0.855 | –
23 | Cc1cc2c(c(-c3ccccn3)c1)OC(CNC(=O)c1ccoc1)C2 (stereo unspecified) | 0.848 | –
24 | COc1ccccc1N1CCN(CC2(O)CCCN(CC(C)(C)C)C2=O)CC1 (stereo unspecified) | – | 0.91
25 | CSc1ccccc1OCc1cc(C(=O)NCCN2CCCCC2CO)no1 (stereo unspecified) | 0.784 | –
26 | Cn1c(C2CCC2)nc2cc(C(=O)N3CCN(c4cnccn4)CC3)cc(NC(=O)C3CCCO3)c21 (stereo unspecified) | 0.863 | –
27 | COC(=O)C1CCCCN1C(=O)c1c(OC)cc(=O)n2c1CCN(Cc1cc(F)ccc1F)CC2 (stereo unspecified) | 0.792 | –
28 | COc1cccc(CCC2CCCN(C(=O)c3cnc(C)cn3)C2)c1 (stereo unspecified) | – | 0.48
29 | COCCN(Cc1nc(-c2ccc(F)cc2)oc1C)C(C)C | – | 0.86
30 | Cc1ccccc1CCC1CCCN(C(=O)CCN2CCCCC2=O)C1 (stereo unspecified) | – | 0.978
31 | COc1cccc(-c2ccc(NC(=O)C3CCCN(CCCSC)C3)cc2)c1 (stereo unspecified) | 0.58 | –
